The list shows a part of the results.

By UniProt entry, the sequences of proteins in these tests, tags left out. Where a name states a change or a piece, a line headed by the entry shows the natural chain unless it says otherwise.
UniProt Q6YP21: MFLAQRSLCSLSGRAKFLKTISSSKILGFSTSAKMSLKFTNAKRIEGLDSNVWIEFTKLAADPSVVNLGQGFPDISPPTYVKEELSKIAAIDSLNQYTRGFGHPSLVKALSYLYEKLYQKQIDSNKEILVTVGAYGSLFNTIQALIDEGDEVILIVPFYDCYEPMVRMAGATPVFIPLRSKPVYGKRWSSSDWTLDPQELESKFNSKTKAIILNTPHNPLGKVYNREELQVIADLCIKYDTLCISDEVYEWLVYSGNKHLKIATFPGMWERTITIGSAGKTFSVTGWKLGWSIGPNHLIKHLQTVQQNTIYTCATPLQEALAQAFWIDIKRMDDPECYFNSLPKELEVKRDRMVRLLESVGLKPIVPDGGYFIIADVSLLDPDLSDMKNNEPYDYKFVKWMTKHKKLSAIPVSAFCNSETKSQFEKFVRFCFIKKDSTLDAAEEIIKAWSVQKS
UniProt Q14847: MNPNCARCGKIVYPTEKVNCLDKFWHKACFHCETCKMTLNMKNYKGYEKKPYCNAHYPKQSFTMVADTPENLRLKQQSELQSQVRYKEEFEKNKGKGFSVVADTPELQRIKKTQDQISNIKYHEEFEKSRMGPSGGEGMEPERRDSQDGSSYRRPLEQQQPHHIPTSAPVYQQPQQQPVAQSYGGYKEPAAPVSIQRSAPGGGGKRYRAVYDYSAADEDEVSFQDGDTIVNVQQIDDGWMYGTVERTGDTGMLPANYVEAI
UniProt Q6UWP7: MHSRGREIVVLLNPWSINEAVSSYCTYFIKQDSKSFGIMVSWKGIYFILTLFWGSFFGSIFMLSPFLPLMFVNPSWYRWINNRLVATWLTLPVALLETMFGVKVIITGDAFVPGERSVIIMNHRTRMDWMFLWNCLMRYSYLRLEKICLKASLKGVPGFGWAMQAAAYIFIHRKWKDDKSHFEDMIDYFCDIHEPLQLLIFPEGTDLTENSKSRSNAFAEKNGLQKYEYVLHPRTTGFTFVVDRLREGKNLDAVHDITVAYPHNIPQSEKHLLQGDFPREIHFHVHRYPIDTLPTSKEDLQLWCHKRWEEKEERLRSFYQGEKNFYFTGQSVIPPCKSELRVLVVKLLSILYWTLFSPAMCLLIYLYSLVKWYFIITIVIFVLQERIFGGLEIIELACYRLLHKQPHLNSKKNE
UniProt Q9BRT6: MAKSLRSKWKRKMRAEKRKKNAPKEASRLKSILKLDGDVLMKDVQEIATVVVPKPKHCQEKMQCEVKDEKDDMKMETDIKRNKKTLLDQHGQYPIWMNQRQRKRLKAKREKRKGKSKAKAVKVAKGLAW
UniProt Q12907: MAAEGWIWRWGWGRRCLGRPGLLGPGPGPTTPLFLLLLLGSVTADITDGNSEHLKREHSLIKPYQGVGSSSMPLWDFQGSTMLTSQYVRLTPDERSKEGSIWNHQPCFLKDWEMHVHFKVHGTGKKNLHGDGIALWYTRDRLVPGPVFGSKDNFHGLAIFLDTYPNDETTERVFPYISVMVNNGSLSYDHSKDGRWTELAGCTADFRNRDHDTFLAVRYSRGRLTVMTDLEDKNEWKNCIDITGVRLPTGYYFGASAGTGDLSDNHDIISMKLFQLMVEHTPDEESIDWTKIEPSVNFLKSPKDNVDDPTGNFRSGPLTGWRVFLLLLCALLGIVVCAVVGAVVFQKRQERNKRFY
UniProt Q92539: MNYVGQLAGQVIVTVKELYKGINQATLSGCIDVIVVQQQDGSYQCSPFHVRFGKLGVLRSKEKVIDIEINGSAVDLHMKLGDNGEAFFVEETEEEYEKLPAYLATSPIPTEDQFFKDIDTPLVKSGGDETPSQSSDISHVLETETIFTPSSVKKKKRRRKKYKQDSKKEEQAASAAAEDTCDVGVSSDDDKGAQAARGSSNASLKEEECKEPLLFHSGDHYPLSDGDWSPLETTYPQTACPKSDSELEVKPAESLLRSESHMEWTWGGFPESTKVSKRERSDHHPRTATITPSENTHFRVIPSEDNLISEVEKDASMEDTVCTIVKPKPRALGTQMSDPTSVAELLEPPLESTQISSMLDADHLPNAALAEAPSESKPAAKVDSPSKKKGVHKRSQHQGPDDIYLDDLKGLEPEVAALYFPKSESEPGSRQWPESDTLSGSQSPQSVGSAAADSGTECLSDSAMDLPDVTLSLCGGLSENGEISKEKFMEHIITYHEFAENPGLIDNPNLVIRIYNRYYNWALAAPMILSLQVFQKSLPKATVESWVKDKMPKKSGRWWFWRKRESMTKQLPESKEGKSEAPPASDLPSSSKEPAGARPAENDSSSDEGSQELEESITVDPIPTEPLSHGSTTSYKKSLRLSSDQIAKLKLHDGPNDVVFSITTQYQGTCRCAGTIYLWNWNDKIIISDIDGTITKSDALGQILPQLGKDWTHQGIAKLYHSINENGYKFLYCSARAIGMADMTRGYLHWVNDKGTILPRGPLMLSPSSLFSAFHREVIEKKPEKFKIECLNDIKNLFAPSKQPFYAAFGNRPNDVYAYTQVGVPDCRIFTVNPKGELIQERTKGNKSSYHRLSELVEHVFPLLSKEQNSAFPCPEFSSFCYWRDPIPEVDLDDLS
UniProt Q96AG4: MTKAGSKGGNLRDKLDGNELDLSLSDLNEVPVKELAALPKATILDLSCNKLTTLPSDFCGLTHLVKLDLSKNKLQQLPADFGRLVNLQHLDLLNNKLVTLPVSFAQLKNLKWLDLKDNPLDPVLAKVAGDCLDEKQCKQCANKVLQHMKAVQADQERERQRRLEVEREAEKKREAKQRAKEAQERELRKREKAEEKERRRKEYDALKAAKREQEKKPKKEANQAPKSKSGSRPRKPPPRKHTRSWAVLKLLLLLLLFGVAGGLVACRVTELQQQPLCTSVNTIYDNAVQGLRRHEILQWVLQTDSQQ
UniProt P09382, whole entry, looked up: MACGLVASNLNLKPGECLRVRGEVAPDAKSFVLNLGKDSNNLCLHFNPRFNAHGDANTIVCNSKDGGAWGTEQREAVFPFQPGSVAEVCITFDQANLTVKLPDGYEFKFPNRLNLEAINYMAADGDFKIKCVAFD
UniProt P53671: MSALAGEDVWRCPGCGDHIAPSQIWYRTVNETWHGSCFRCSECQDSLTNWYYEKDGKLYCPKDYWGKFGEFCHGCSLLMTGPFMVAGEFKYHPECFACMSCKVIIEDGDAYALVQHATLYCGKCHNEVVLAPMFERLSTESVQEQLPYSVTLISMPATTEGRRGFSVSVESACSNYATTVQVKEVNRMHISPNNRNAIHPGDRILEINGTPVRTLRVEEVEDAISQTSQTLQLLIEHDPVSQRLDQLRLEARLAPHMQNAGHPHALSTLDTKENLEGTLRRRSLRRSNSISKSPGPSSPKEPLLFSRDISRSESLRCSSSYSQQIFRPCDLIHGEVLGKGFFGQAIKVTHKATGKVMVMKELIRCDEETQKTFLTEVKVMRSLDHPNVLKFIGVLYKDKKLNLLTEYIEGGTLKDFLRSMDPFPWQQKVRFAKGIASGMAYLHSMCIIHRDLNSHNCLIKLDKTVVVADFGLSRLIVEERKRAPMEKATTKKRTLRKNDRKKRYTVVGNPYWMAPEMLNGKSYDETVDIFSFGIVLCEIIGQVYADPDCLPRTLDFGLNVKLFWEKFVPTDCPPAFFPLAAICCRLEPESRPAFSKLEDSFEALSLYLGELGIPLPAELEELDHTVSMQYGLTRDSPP
UniProt Q8TCA0: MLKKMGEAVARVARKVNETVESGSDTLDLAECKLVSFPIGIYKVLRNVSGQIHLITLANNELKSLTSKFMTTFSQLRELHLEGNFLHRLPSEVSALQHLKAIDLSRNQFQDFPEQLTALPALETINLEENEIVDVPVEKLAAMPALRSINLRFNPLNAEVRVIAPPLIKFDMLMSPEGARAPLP
UniProt Q8N9N7: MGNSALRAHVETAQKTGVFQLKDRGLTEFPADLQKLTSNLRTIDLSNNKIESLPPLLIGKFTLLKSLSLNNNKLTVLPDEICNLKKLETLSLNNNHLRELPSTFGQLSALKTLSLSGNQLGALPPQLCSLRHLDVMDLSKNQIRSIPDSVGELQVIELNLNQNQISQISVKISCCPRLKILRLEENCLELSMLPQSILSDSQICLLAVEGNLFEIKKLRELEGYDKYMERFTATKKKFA
UniProt Q9NS86: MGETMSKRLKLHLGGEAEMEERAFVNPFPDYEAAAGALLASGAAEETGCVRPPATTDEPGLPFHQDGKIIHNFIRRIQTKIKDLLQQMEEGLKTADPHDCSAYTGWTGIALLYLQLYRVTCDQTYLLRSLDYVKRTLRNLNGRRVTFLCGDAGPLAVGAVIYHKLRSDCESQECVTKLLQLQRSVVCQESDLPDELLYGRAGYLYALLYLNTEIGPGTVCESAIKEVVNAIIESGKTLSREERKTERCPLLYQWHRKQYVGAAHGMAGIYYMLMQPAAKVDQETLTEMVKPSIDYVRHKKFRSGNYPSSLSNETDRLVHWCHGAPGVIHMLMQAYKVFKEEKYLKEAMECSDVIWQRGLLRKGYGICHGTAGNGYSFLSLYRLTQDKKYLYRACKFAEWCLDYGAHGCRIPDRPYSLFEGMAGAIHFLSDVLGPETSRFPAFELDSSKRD
UniProt Q9UN81: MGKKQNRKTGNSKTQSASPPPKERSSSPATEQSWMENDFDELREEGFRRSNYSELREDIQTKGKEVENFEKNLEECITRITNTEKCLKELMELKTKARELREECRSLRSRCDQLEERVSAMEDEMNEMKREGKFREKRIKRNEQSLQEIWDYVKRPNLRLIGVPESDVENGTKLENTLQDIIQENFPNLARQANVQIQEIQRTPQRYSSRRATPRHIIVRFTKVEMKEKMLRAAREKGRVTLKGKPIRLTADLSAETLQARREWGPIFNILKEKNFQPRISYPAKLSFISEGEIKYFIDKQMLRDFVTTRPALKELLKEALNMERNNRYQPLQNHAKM
UniProt P30533, whole entry, looked up: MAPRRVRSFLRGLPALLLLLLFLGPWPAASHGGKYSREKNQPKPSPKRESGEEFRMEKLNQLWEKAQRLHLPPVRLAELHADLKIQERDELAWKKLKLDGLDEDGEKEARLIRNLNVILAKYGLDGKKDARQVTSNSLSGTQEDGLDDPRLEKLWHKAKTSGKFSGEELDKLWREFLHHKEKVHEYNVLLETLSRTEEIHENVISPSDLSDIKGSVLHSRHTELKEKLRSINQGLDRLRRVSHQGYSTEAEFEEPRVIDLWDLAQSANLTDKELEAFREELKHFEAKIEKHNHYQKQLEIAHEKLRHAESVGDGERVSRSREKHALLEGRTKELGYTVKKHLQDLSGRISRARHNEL
UniProt O94898: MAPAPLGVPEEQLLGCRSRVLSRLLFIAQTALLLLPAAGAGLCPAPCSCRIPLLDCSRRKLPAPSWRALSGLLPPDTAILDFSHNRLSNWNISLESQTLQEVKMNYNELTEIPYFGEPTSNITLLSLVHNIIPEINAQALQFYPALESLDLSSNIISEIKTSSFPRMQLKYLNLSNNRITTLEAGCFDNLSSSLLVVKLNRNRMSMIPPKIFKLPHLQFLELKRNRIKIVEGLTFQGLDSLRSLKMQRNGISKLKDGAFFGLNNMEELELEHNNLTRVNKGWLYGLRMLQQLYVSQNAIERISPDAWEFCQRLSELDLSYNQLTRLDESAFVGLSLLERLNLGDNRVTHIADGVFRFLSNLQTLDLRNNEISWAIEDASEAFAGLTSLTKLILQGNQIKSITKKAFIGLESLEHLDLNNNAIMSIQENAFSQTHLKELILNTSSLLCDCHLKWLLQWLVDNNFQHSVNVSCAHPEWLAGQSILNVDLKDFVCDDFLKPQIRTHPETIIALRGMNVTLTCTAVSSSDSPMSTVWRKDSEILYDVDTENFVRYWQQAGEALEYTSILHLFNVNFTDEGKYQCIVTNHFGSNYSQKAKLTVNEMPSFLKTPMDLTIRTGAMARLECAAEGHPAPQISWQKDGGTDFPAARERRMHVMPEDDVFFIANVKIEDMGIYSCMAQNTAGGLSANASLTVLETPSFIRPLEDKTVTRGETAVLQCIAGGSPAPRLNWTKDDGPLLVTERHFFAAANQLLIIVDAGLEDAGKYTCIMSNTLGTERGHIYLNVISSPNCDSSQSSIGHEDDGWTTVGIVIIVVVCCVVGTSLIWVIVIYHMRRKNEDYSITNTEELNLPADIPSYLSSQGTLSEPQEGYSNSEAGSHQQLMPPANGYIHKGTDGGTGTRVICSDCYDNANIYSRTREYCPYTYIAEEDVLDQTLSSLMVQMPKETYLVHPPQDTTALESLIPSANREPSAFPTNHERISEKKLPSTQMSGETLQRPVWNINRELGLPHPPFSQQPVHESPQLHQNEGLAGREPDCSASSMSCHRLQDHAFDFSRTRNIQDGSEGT
UniProt Q9NUP9: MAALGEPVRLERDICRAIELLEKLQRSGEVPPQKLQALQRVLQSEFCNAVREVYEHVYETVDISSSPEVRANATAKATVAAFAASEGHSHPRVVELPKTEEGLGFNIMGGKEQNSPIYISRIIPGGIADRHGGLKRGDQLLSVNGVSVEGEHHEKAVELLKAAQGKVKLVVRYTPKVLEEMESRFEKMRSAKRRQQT

Compound in one test: CN1CC[C@H](c2c(O)cc(O)c3c(=O)cc(-c4ccccc4Cl)oc23)[C@H](O)C1 [alvocidib]
Description: log2 fold change, soluble protein after heating vs DMSO (PISA); higher = thermal stabilisation; K562 cells, 10 uM, 30 min; active = over 0.2 and 3.5 SD of the protein, either way, in both replicates (recomputed). An outline of the steps:
(§1)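 K562 cells at 2×10^6 cells/mL were treated with 10 μM compound for 30 min. Aliquots were heated for 3 min across 48°C-58°C, pooled, and extracted in PBS with 0.5% NP-40 at 4°C; soluble protein was the supernatant after 21,000xg for 90 min. Soluble protein was quantified by TMTpro 16plex LC-MS/MS with channel sums equalised, and reported as log2 fold change in thermal stability against DMSO controls, with values from duplicates.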
As to KYNU (UniProt Q16719), the log2 fold change was inactive: -0.006.
In the case of LDHA isoform 3 (UniProt P00338), the log2 fold change was inactive: -0.019.
Same read-out and setting: under KYAT3 (UniProt Q6YP21) stands inactive: 0.019; under LASP1 (UniProt Q14847), inactive: 0.006; under LCLAT1 (UniProt Q6UWP7), inactive: -0.046.
On to LAMTOR4 (UniProt Q0VGL1), for which the log2 fold change was inactive: 0.14.
The same measure, in the same setting: under LLPH (UniProt Q9BRT6) stands inactive: 0.335; under LMAN2 (UniProt Q12907), inactive: -0.023.
Turning to LPIN2 (UniProt Q92539), the log2 fold change was inactive: 0.014.
On to LARP7 isoform 3 (UniProt Q4G0J3), for which the log2 fold change is active: -0.234.
The same measure, in the same setting: under LLGL2 (UniProt Q6P1M3) stands inactive: 0.219; under LARS (UniProt Q9P2J5), inactive: 0.146; under LAMTOR5 (UniProt O43504), inactive: -0.127.
Consider LRRC59 (UniProt Q96AG4), for which the log2 fold change is inactive: 0.007.
Consider LGALS1 (UniProt P09382), for which the log2 fold change is inactive: 0.003.
Same read-out and setting: under LIMK2 isoform 3 (UniProt P53671) stands inactive: 0.067; under LIN7A (UniProt O14910), inactive: 0.048; under LRRC20 (UniProt Q8TCA0), inactive: -0.011.
Still for that read-out and setting: under LRRC57 (UniProt Q8N9N7) stands inactive: -0.046; under LANCL2 (UniProt Q9NS86), inactive: -0.018.
LMNA (UniProt P02545): the log2 fold change is active: -0.214.
Still for that read-out and setting: under LRRC47 (UniProt Q8N1G4) stands inactive: -0.063; under L1RE1 (UniProt Q9UN81), inactive: 0.122; under LRPAP1 (UniProt P30533), inactive: 0.011.
Still for that read-out and setting: then LRIG2 (UniProt O94898), with inactive: -0.027; and LCMT2 (UniProt O60294), with inactive: -0.033.
Turning to LIN7C (UniProt Q9NUP9), the log2 fold change was inactive: -0.056.
Same read-out and setting: under LRRC4B (UniProt Q9NT99) stands inactive: -0.038.

Compound in another test: CN1CCc2c(c3ccccc3n2Cc2ccc(C(=O)NO)cc2)C1 [Tubastatin A]
Described as above. The gist of the method: as §1
Turning to KYNU (UniProt Q16719), the log2 fold change was inactive: 0.024.
Still for that read-out and setting: under KTN1 (UniProt Q86UP2) stands inactive: 0.032.
With LPIN3 isoform 2 (UniProt Q9BQK8), the log2 fold change was inactive: 0.093.
On to LDHA isoform 3 (UniProt P00338), for which the log2 fold change is inactive: -0.012.
Consider KYAT3 (UniProt Q6YP21), for which the log2 fold change was inactive: -0.041.
Same read-out and setting: under LASP1 (UniProt Q14847) stands inactive: -0.027; under LCLAT1 (UniProt Q6UWP7), inactive: -0.002; under LAMTOR4 (UniProt Q0VGL1), inactive: 0.032.
LLPH (UniProt Q9BRT6): the log2 fold change was inactive: 0.265.
As for LMAN2 (UniProt Q12907), the log2 fold change is inactive: 0.02.
Same read-out and setting: under LPIN2 (UniProt Q92539) stands inactive: 0.027.
On the same count and under the same terms, then LARP7 isoform 3 (UniProt Q4G0J3), with inactive: -0.002.
Take LARS (UniProt Q9P2J5): the log2 fold change is inactive: 0.011.
Same read-out and setting: then LAMTOR5 (UniProt O43504), with inactive: 0.255; and LRRC59 (UniProt Q96AG4), with inactive: -0.015.
The same measure, in the same setting: then LGALS1 (UniProt P09382), with inactive: 0.006; and LIMK2 isoform 3 (UniProt P53671), with inactive: -0.005.
Same read-out and setting: under LIN7A (UniProt O14910) stands inactive: -0.013; under LRRC20 (UniProt Q8TCA0), inactive: 0.08.
As to LRRC57 (UniProt Q8N9N7), the log2 fold change was inactive: -0.014.
For the target LANCL2 (UniProt Q9NS86), the log2 fold change is inactive: -0.001.
On to LMNA (UniProt P02545), for which the log2 fold change is inactive: -0.033.
As for LMNB2 (UniProt Q03252), the log2 fold change is inactive: 0.02.
Still for that read-out and setting: then LRRC47 (UniProt Q8N1G4), with inactive: -0.001; and L1RE1 (UniProt Q9UN81), with inactive: 0.042; and LRPAP1 (UniProt P30533), with inactive: 0.
For the target LRIG2 (UniProt O94898), the log2 fold change is inactive: 0.093.
On the same count and under the same terms, then LIN7C (UniProt Q9NUP9), with inactive: -0.016; and LETMD1 isoform 7 (UniProt Q6P1Q0), with inactive: 0.288; and LRRC4B (UniProt Q9NT99), with inactive: -0.172.

Compound in a further test: CNC(=O)C1=CC=CC=C1NC2=NC(=NC=C2Cl)NC3=C(C=C(C=C3)N4CCOCC4)OC
Described as above. An outline of the steps: as §1
Regarding KYNU (UniProt Q16719), the log2 fold change was inactive: -0.009.
On the same count and under the same terms, under KTN1 (UniProt Q86UP2) stands inactive: -0.12; under LPIN3 isoform 2 (UniProt Q9BQK8), inactive: -0.087; under LDHA isoform 3 (UniProt P00338), inactive: -0.016.
Consider KYAT3 (UniProt Q6YP21), for which the log2 fold change is inactive: -0.025.
Same read-out and setting: under LASP1 (UniProt Q14847) stands inactive: -0.037; under LCLAT1 (UniProt Q6UWP7), inactive: -0.048; under LAMTOR4 (UniProt Q0VGL1), inactive: -0.076.
On the same count and under the same terms, then LLPH (UniProt Q9BRT6), with inactive: -0.034; and LMAN2 (UniProt Q12907), with inactive: 0.082.
Still for that read-out and setting: under LPIN2 (UniProt Q92539) stands inactive: -0.148; under LARP7 isoform 3 (UniProt Q4G0J3), inactive: -0.04; under LLGL2 (UniProt Q6P1M3), inactive: -0.104.
For the target LARS (UniProt Q9P2J5), the log2 fold change was inactive: 0.045.
Same read-out and setting: then LAMTOR5 (UniProt O43504), with inactive: -0.026.
For LRRC59 (UniProt Q96AG4), the log2 fold change is inactive: 0.
The same measure, in the same setting: then LGALS1 (UniProt P09382), with inactive: 0.028; and LIMK2 isoform 3 (UniProt P53671), with inactive: -0.014; and LIN7A (UniProt O14910), with inactive: -0.056.
As for LRRC20 (UniProt Q8TCA0), the log2 fold change is inactive: 0.011.
As to LRRC57 (UniProt Q8N9N7), the log2 fold change is inactive: -0.047.
Same read-out and setting: under LANCL2 (UniProt Q9NS86) stands inactive: -0.038; under LMNA (UniProt P02545), inactive: 0.003.
On the same count and under the same terms, then LMNB2 (UniProt Q03252), with inactive: 0.027; and LRRC47 (UniProt Q8N1G4), with inactive: 0.011.
The same measure, in the same setting: under L1RE1 (UniProt Q9UN81) stands inactive: 0.004; under LRPAP1 (UniProt P30533), inactive: 0.003; under LRIG2 (UniProt O94898), inactive: 0.121.
Take LCMT2 (UniProt O60294): the log2 fold change was inactive: 0.024.
For the target LIN7C (UniProt Q9NUP9), the log2 fold change is inactive: -0.027.
As for LETMD1 isoform 7 (UniProt Q6P1Q0), the log2 fold change was inactive: 0.072.
Regarding LRRC4B (UniProt Q9NT99), the log2 fold change was inactive: -0.238.
